In article PMC3115958 one finds binding data, which are given here for 1 substance.

The chains behind the UniProt entries cited, without tags or fusion partners. Where a name states a change or a piece, a line headed by the entry shows the natural chain unless it says otherwise. A line that says so, or that is headed by a name, gives the form on record, which may keep a tag or linker. Residues count along the entry.
UniProt P28799: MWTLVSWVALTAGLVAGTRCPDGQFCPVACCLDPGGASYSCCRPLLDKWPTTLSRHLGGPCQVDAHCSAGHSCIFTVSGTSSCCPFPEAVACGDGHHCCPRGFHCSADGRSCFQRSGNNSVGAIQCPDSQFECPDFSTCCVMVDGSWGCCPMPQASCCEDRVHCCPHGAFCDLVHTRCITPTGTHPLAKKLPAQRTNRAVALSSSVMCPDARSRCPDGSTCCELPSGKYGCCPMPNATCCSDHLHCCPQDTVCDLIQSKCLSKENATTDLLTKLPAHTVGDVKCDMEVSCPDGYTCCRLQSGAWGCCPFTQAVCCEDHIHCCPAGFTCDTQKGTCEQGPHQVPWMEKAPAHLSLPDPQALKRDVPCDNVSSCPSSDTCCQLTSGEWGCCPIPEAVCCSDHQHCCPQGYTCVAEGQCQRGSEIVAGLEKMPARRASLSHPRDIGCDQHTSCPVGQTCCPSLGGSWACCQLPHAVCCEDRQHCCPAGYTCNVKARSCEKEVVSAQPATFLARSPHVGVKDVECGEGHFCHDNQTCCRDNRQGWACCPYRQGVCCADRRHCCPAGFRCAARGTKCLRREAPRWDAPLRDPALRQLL
Flag tagged progranulin: residues 18-593 of P28799
Flag tagged progranulin lacking the last 3 residues (QLL): residues 18-590 of P28799
Flag tagged progranulin C100: residues 494-593 of P28799
UniProt Q6PHU5, residues 74-825: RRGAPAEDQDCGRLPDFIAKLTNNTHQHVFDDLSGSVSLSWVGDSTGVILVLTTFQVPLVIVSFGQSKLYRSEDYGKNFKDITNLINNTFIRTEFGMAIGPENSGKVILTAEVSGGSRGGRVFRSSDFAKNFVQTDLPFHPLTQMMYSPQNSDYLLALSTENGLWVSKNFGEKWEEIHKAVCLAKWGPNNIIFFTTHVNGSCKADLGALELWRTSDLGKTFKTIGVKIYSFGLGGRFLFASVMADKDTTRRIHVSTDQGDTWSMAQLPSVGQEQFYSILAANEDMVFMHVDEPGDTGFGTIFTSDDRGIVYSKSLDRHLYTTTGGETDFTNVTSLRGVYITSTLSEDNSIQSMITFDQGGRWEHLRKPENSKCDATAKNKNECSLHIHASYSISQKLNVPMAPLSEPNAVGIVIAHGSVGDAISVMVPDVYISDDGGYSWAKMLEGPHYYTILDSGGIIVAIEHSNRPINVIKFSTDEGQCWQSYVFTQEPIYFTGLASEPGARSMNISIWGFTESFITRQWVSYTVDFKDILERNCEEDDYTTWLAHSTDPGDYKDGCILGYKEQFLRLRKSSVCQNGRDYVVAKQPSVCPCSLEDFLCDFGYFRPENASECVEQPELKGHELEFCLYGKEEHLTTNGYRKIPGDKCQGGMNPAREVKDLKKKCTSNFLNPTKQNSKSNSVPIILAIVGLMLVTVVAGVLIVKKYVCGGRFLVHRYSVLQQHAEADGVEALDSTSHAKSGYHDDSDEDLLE

Common to all, as to assay: co-IP; anti-Flag beads bound to Flag-PGRN forms from the conditioned media of transfected HEK293T cells, incubated with cell lysates (transfected HEK293T; NSC-34) for 4 hours at 4°C; 50 mM Tris pH 8.0, 150 mM NaCl, 1% Triton, 0.1% sodium deoxycholate; sortilin detected with anti-sortilin antibodies
The target in experiment [1] is Flag tagged progranulin lacking the last 3 residues (QLL) (human) (UniProt P28799).
Experiment [2] addresses Flag tagged progranulin (human) (UniProt P28799).
In experiment [3] the target is Flag tagged progranulin C100 (human) (UniProt P28799).

Results are given in words; binding and its absence hold for the method and conditions named. In cells and extracts the contact can be indirect. Some binding calls cover weakened binding; strength is not graded here.

As for “sortilin in the cell lysates of NSC-34 (from UniProt Q6PHU5 74-825) (receptor)”, the values for the binding entry in experiment [1], in experiment [2] and in experiment [3] were “no binding”, “binds” and “binds”, respectively.
